# Measurements taken from patent publication US6545052B2, “Methods and compositions for inhibiting free radical polymerization in skin and hair” (Fan Tech, Ltd., priority 2000, dated 2003).
# Some results were stated once for a whole list of compounds, not compound by compound. At least one structure is not confirmed: it was looked up by name or label, or the drawing left a doubt.
# Experiment: free radical inhibition assay: inhibition of polymerization of acrylic acid to polyacrylic acid
# Conditions: assay of Example 10, compounds tested separately (Example 11)
# Text: A presently preferred method for determining the free radical inhibitory capacity of a compound is based on the ability of such a compound to inhibit free radical polymerization of acrylic acid to polyacrylic acid. […] As will be appreciated, the amount of polyacrylic acid formed is inversely related to the amount of acrylic acid (i.e., monomer) remaining in the reaction mixture at the end of the assay. The amount of acrylic acid may be routinely determined by measuring the iodine value of the reaction mixture or by other methods known in the art for determinating unsaturation. A well-known free radical inhibitor compound such as hydroquinone mono methyl ether (HQMME) may be used as a standard inhibitor compound in the assay.
# Into each of three 250 ml beakers, labeled “1,” “2,” and “3” respectively, is added 200 ml of a 30% solution of acrylic acid (in water). One-tenth gram of 1,3-di(3-methoxybenzyl)thiourea was dissolved in 9.9 grams of isopropyl alcohol to give a 1% (w/w) solution of the free radical inhibitor compound. […] One-tenth gram of azobisisobutyronitrile (a free radical initiator) was dissolved in 9.9 grams of isopropyl alcohol to provide a 1% solution of the free radical initiator. To beaker 1, containing 200 ml of the acrylic acid solution was added 0.6 ml of the 1% solution of 1,3-di(3-methoxybenzyl)thiourea. To beaker 2, containing 200 ml of the acrylic acid solution was added 0.6 ml of the 1% solution of hydroquinone mono methyl ether. To beaker 3 was added 0.6 ml of isopropyl alcohol (no inhibitor). Beakers 1, 2 and 3 containing the acrylic acid solution, with or without inhibitor compound added thereto, were heated to 85° C. on a hot plate and 0.2 ml of the 0.1% solution of azobisisobutyrlnitrile was then added to each beaker to initiate the free radical polymerization reaction. After 3 hours, the beakers were removed from the hot plate to stop the reaction from progressing further, and the amount of acrylic acid which remained in the reaction mixture was determined by measuring the iodine value of an aliquot of the reaction mixture using the A.O.C.S. Method Tg 1a-64T in Official Methods And Recommended Practices Of The AOCS, by American Oil Chemists' Society, Champaign, Ill.
row,SMILES,inhibition of free radical polymerization (in words)
1,"CCNC(=S)NCc1cccc(OC)c1 [Example 3, 1-(3-methoxybenzyl)-3-ethyl-2-thiourea]",effective inhibitors of free radical polymerization
2,"CCCCCCNC(=S)NCc1cccc(OC)c1 [Example 4, 1-(3-methoxybenzyl)-3-hexyl-2-thiourea]",effective inhibitors of free radical polymerization
3,"CCCCCCCCCCCCNC(=S)NCc1cccc(OC)c1 [Example 6, 1-(3-methoxybenzyl)-3-dodecyl-2-thiourea]",effective inhibitors of free radical polymerization
4,COc1ccc(O)cc1 [Example 2],effective inhibitors of free radical polymerization
